In this assay the target is NCAM(20-208), unmutated double Ig domain (Ig1-Ig2) (UniProt P13596). Nature of the assay: gel filtration chromatography, self-association. (In gel filtration, larger molecules generally elute earlier.)

Protein sequences, listed by entry. Tags and fused reporters are not part of them. Lines headed by an entry give the natural chain unless they say otherwise; changes in a name come on top. Residues count along the entry.
UniProt P13596, residues 20-208: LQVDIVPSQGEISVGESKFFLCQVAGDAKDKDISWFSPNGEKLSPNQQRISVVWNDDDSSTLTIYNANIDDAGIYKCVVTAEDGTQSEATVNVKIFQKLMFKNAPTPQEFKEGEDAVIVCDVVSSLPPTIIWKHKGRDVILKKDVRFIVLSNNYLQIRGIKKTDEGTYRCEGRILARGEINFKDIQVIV

These are yes or no findings as the source states them, for the method shown. Some binding calls cover weakened binding; strength is not graded here.

With “NCAM(20-208), unmutated double Ig domain (Ig1-Ig2) (from UniProt P13596 20-208) (receptor)”, the binding entry is recorded as “binds”.

Values taken from patent publication US6887844 (dated 2005).
